Results published in paper PMC7449975.
Results are given in words; binding and its absence hold for the method and conditions named. Binding seen in cells or lysates may run through a third protein. Some binding calls cover weakened binding; strength is not graded here.

Chains of the proteins cited; added tags and fusions are not shown.
UniProt Q9NVP2: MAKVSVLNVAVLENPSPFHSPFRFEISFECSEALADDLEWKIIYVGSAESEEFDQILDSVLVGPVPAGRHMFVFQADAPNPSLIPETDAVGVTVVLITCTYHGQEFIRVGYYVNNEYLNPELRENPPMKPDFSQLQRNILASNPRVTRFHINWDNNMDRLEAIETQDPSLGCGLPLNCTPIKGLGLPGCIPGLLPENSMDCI
UniProt P50750: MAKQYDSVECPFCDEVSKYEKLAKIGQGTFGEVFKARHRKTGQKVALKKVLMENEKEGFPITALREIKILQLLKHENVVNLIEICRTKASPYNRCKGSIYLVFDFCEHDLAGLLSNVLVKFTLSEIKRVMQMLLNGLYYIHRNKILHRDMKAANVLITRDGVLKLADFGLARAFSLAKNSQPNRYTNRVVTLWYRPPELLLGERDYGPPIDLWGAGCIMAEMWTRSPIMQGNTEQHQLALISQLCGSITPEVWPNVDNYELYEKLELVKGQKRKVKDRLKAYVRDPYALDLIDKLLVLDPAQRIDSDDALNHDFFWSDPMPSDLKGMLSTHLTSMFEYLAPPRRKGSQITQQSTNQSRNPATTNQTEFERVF

Target: endogenous ASF1B (human (endogenous in HeLa)) (UniProt Q9NVP2)
Assay: co-IP; normal HeLa cells, endogenous proteins; anti-ASF1B antibody or anti-CDK9 antibody (Novus Biologicals); Western blot

cyclin-dependent kinase 9 (from UniProt P50750 1-372)
binding: binds
